Compound in the experiment: Nc1ncnc2c1ncn2[C@@H]1O[C@H](COP(=O)(O)OP(=O)(O)OP(=O)(O)O)[C@@H](O)[C@H]1O [adenosine triphosphate]
The experiment is described as follows: NP40-soluble protein abundance relative to vehicle (solubility fold change) (ratio); higher = more soluble protein in presence of ATP. In short, it runs like this: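 Data come from three independent experiments in which Dounce-homogenised Jurkat crude lysate was treated at eight concentrations from 0.1 to 10 mM. Treatment ran 10 min at room temperature and then 3 min at 37 °C, after which 0.8% NP40 and benzonase were added for 60 min at 4 °C before ultracentrifugation. The supernatant underwent TMT labelling and LC-MS/MS, and vsn-normalised intensities were expressed as fold change against the detergent-processed vehicle in each replicate.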

Chains of the proteins cited; added tags and fusions are not shown. Lines headed by an entry give the natural chain unless they say otherwise; changes in a name come on top.
UniProt Q9BTE1, whole entry: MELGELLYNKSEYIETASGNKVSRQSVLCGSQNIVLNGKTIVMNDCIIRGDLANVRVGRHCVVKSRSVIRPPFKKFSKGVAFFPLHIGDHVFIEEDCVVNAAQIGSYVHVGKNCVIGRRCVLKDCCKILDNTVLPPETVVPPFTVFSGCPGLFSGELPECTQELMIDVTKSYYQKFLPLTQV
UniProt Q96T88: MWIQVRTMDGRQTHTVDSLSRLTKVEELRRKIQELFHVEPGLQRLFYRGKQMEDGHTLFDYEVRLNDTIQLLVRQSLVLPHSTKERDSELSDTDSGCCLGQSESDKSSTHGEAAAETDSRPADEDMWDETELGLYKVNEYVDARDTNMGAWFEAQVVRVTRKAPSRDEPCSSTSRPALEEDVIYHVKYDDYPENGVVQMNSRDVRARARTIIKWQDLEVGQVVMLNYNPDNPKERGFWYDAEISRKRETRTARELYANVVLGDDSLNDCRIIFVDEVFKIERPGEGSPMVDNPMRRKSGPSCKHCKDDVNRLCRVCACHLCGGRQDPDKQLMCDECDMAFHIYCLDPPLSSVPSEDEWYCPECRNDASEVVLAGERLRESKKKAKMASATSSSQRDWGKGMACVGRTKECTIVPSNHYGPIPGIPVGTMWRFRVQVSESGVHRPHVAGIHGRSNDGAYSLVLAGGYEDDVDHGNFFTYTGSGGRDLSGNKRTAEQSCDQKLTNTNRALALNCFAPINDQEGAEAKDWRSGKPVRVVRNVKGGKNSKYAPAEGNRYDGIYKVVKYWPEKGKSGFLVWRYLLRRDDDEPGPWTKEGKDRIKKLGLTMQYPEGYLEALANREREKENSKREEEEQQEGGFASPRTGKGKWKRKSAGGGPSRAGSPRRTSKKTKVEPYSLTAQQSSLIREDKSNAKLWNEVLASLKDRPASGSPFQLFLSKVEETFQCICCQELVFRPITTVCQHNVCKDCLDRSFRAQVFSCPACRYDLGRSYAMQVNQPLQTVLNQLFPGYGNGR
UniProt Q9BPX3, whole entry, looked up: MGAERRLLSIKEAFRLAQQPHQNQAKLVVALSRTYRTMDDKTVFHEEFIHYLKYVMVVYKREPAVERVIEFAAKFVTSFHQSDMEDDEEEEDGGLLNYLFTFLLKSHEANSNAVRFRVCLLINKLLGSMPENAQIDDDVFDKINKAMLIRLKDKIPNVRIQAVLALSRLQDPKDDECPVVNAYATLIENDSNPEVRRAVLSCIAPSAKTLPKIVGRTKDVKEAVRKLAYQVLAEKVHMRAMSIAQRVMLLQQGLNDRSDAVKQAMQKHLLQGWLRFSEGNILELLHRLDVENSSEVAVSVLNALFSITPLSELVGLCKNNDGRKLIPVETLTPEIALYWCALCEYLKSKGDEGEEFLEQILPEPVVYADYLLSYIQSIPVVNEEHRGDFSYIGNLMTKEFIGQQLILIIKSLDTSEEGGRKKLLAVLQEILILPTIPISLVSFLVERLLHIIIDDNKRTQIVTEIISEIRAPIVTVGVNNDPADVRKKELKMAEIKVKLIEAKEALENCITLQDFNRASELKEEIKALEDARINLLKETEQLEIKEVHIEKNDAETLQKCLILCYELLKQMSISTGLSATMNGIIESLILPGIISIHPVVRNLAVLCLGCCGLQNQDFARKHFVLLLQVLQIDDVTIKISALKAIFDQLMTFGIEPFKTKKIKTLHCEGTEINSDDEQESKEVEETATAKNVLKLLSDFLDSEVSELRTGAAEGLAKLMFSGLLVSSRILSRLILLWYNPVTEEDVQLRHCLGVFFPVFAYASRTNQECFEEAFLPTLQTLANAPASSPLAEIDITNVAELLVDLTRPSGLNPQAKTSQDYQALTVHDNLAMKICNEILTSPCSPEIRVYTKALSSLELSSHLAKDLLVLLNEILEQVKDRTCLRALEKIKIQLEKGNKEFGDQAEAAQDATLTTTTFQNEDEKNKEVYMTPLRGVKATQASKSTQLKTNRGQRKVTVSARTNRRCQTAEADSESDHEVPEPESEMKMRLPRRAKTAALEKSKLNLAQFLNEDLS
UniProt Q9BUP0: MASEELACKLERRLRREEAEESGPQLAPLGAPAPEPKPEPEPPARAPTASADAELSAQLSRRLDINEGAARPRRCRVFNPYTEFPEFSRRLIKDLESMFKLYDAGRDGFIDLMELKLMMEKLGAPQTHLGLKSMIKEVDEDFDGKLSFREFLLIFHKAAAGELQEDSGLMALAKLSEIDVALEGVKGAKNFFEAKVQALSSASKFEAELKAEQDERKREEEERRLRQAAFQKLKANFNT
UniProt Q9BPX5, whole entry: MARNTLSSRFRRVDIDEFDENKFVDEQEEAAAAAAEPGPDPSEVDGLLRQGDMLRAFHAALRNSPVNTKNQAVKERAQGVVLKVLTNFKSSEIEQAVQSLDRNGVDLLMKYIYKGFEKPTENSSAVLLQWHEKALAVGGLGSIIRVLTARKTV
UniProt Q99496: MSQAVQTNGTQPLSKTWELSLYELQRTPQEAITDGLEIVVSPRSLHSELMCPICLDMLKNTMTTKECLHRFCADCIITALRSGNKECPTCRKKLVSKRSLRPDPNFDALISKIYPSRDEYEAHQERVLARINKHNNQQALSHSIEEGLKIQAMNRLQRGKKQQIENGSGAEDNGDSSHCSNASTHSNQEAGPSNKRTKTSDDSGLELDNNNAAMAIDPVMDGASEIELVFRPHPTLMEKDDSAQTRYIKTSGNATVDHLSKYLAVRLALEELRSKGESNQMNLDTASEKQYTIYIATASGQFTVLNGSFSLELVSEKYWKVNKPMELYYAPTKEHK
UniProt Q9BQT9: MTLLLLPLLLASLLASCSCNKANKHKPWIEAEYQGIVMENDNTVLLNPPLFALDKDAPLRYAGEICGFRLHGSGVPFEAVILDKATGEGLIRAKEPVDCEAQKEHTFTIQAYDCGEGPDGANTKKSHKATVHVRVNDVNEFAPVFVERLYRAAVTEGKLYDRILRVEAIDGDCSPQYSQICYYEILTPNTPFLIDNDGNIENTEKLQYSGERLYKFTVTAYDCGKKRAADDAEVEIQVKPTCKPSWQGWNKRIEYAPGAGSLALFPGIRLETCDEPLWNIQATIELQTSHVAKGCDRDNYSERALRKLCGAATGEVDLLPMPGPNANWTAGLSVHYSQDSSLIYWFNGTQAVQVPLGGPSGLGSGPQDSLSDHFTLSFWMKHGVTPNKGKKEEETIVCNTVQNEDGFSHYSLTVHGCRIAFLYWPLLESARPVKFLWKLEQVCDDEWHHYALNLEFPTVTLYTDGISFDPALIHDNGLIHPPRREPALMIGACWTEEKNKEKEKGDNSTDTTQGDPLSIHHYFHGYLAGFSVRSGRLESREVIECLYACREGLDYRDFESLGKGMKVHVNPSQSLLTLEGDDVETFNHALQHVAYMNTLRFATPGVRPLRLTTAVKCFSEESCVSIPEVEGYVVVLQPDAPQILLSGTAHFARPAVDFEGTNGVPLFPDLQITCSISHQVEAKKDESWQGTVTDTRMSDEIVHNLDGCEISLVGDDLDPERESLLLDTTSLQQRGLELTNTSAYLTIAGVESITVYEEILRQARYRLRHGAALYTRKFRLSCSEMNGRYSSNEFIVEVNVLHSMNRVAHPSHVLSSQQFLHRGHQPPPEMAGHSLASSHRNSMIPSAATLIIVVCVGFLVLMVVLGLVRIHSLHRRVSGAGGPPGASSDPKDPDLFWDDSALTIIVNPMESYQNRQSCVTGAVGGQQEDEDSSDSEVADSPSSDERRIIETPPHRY
UniProt Q9BSY9: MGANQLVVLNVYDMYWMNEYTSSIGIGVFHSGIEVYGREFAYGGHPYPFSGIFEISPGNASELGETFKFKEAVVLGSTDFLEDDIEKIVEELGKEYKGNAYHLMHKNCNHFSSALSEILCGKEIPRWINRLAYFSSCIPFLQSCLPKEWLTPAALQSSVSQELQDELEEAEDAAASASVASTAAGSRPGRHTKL
UniProt Q99640: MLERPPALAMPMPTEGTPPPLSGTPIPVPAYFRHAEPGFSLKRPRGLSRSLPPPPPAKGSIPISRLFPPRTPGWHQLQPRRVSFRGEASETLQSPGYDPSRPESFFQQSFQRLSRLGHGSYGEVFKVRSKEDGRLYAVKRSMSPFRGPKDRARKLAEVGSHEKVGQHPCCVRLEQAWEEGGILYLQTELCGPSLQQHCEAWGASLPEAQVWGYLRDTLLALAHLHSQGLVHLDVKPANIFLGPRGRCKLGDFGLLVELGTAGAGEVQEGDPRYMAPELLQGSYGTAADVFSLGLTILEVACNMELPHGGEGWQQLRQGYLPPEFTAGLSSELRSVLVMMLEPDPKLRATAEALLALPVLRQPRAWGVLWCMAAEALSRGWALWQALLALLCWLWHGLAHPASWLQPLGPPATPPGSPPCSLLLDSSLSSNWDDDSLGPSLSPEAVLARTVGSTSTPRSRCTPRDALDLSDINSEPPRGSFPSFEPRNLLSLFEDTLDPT
UniProt Q9BQ04: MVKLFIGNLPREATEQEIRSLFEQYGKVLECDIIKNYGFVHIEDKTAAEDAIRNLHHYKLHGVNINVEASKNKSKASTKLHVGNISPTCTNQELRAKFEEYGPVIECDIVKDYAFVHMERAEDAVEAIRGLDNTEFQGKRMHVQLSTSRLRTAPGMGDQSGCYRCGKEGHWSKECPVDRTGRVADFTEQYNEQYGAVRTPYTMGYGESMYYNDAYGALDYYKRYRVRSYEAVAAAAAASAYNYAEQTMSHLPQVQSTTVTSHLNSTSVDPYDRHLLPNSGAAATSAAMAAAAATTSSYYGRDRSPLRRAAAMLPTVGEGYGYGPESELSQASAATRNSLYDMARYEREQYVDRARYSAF
UniProt Q9BX70: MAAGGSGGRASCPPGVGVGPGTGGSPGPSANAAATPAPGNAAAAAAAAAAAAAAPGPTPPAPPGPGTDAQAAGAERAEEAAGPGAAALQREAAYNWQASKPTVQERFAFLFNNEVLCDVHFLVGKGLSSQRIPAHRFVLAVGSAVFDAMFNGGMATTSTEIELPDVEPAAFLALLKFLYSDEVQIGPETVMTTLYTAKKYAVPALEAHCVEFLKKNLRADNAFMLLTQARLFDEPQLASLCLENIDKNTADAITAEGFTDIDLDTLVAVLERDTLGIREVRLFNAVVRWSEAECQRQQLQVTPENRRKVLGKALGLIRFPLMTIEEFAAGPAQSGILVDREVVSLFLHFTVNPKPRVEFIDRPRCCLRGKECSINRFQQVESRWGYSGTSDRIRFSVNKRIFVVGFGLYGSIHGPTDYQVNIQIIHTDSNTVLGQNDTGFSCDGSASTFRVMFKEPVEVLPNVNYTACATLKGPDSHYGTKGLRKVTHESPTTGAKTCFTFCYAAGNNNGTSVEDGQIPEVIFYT
UniProt Q9BRR8: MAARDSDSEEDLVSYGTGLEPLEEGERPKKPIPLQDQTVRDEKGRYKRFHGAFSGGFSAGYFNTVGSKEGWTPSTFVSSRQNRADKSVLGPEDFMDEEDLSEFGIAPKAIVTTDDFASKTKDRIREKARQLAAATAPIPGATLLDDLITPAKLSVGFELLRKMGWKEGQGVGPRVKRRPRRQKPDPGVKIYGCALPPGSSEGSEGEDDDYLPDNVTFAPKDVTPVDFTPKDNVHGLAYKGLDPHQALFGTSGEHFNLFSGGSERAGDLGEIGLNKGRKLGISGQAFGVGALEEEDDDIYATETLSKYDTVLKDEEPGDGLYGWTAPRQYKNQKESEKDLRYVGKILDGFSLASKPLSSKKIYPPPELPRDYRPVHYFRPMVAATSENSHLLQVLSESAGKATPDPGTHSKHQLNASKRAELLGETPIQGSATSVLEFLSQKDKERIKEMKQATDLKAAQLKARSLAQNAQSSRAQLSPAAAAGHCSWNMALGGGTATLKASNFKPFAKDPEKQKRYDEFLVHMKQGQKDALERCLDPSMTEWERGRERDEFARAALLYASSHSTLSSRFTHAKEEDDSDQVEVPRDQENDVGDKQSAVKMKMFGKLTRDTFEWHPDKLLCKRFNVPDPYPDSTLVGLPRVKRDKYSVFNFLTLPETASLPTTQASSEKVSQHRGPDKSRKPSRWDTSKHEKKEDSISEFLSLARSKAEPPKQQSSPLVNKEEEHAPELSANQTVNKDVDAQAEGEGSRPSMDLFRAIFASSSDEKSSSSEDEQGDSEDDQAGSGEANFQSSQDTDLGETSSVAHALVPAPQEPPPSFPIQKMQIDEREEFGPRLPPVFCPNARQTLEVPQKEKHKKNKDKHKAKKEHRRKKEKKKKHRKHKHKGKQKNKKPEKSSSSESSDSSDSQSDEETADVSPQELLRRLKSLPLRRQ
UniProt Q99962: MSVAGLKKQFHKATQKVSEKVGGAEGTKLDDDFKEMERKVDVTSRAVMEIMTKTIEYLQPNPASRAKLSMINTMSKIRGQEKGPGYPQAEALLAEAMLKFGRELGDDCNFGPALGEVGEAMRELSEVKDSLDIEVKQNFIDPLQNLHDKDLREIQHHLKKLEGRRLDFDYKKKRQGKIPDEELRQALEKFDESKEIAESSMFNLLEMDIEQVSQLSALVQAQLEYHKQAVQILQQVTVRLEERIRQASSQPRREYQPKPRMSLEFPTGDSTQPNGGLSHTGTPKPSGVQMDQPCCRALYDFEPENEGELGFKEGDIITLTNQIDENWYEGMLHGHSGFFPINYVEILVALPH

± gives the standard deviation of the averaged measurements. The list shows a part of the results, in another mix than the full data. Most values lie at the level of the controls, where differences are scatter.

Our source for the NP40-soluble protein abundance values is the supplement of paper PMC6411743.

As for MRI1 (UniProt Q9BV20), the NP40-soluble protein abundance runs as follows: (concentration: 0.1mM) 1.02 ± 0.071; (concentration: 0.5mM) 1.02 ± 0.053.
In the same order, the values of UniProt Q9BWU1 are 0.971 ± 0.09 and 0.996 ± 0.045.
In the same order, the values of UniProt Q9BQ24 and related entries are 1.1 ± 0.092 and 1.12 ± 0.033.
In the same order, the values of DCTN5 (UniProt Q9BTE1) are 1.02 ± 0.028 and 0.977 ± 0.086.
Consider NAPG (UniProt Q99747), for which the NP40-soluble protein abundance stood at 0.933 ± 0.048 (concentration: 0.1mM) and 0.912 ± 0.028 (concentration: 0.5mM).
In the same order, the values of UHRF1 (UniProt Q96T88) are 1.04 ± 0.025 and 1.07 ± 0.036.
In the same order, the values of SETD2 (UniProt Q9BYW2) are 1.04 ± 0.04 and 1.05 ± 0.034.
As to “UniProt Q9BRK0-2|B4DE60 and related entries”, the NP40-soluble protein abundance (concentration: 0.1mM) is 0.882 ± 0.072 and the NP40-soluble protein abundance (concentration: 0.5mM) was found to be 0.881 ± 0.15.
On to SLC12A9 (UniProt Q9BXP2), for which the NP40-soluble protein abundance (concentration: 0.1mM) was determined as 1.01 ± 0.093 and the NP40-soluble protein abundance (concentration: 0.5mM) is 0.923 ± 0.047.
Taken in the same sequence, the figures for CORO1B (UniProt Q9BR76) were 1.02 ± 0.09 and 1.1 ± 0.075.
For the target UniProt Q9BWE0 and related entries, the NP40-soluble protein abundance (concentration: 0.1mM) was 0.98 ± 0.042 and the NP40-soluble protein abundance (concentration: 0.5mM) amounted to 0.947 ± 0.054.
In the case of ARID3A (UniProt Q99856), the NP40-soluble protein abundance came to 0.984 ± 0.022 (concentration: 0.1mM) and 0.995 ± 0.018 (concentration: 0.5mM).
Taken in the same sequence, the figures for POP1 (UniProt Q99575) were 1.01 ± 0.06 and 1.02 ± 0.057.
In the same order, the values of NCAPG (UniProt Q9BPX3) are 0.989 ± 0.015 and 1.01 ± 0.051.
Taken in the same sequence, the figures for CCT7 (UniProt Q99832) were 0.932 ± 0.1 and 0.989 ± 0.078.
With UniProt Q9BZF2, the NP40-soluble protein abundance by setting is: (concentration: 0.1mM) 1.13 ± 0.11; (concentration: 0.5mM) 1.1 ± 0.11.
Taken in the same sequence, the figures for UniProt Q9BT22 and related entries were 1.03 ± 0.06 and 1.03 ± 0.053.
Taken in the same sequence, the figures for UniProt Q9BXW6 and related entries were 1.08 ± 0.092 and 1.04 ± 0.15.
Taken in the same sequence, the figures for UniProt Q9BSF4 were 0.889 ± 0.049 and 0.924 ± 0.13.
Consider UniProt Q9BSB4, for which the NP40-soluble protein abundance (concentration: 0.1mM) was 1.06 ± 0.1 and the NP40-soluble protein abundance (concentration: 0.5mM) was 1.06 ± 0.078.
On to EFHD1 (UniProt Q9BUP0), for which the NP40-soluble protein abundance (concentration: 0.1mM) came out at 0.818 ± 0.088 and the NP40-soluble protein abundance (concentration: 0.5mM) was found to be 0.753 ± 0.054.
For the target CARD11 (UniProt Q9BXL7), the NP40-soluble protein abundance (concentration: 0.1mM) was 1.012 ± 0.0013 and the NP40-soluble protein abundance (concentration: 0.5mM) was 0.9727 ± 0.0075.
In the same order, the values of ARPC5L (UniProt Q9BPX5) are 0.881 ± 0.081 and 0.918 ± 0.089.
Taken in the same sequence, the figures for UniProt Q9BY43 and related entries were 1.06 ± 0.12 and 1.01 ± 0.074.
For the target UniProt Q9BTY7, the NP40-soluble protein abundance (concentration: 0.1mM) was found to be 0.957 ± 0.12 and the NP40-soluble protein abundance (concentration: 0.5mM) was determined as 0.911 ± 0.12.
Taken in the same sequence, the figures for RNF2 (UniProt Q99496) were 1 ± 0.016 and 1.07 ± 0.015.
Taken in the same sequence, the figures for MNT (UniProt Q99583) were 0.916 ± 0.01 and 0.915 ± 0.075.
In the same order, the values of TSG101 (UniProt Q99816) are 0.972 ± 0.023 and 0.98 ± 0.035.
With CPPED1 (UniProt Q9BRF8), the NP40-soluble protein abundance reads like this: (concentration: 0.1mM) 1.03 ± 0.076; (concentration: 0.5mM) 1.06 ± 0.082.
Turning to UniProt Q99471 and related entries, the NP40-soluble protein abundance turned out to be 0.887 ± 0.14 (concentration: 0.1mM) and 0.894 ± 0.16 (concentration: 0.5mM).
In the same order, the values of MND1 (UniProt Q9BWT6) are 0.936 ± 0.058 and 0.886 ± 0.092.
Taken in the same sequence, the figures for UniProt Q99623 were 0.956 ± 0.03 and 0.964 ± 0.034.
Taken in the same sequence, the figures for UniProt Q9BQP7 were 1.01 ± 0.027 and 1.02 ± 0.038.
As to UniProt Q9BQC6, the NP40-soluble protein abundance reads like this: (concentration: 0.1mM) 0.98 ± 0.076; (concentration: 0.5mM) 0.893 ± 0.13.
For the target UniProt Q9BQT9 and related entries, the NP40-soluble protein abundance is, setting by setting: (concentration: 0.1mM) 1 ± 0.17; (concentration: 0.5mM) 1.03 ± 0.093.
In the same order, the values of UniProt Q9BV86 are 1.05 ± 0.07 and 0.985 ± 0.078.
In the same order, the values of TTC1 (UniProt Q99614) are 0.985 ± 0.034 and 0.9718 ± 0.0086.
As to GNB1L (UniProt Q9BYB4), the NP40-soluble protein abundance reads like this: (concentration: 0.1mM) 1.06 ± 0.067; (concentration: 0.5mM) 1.07 ± 0.063.
In the case of UniProt Q99504 and related entries, the NP40-soluble protein abundance is 1.04 ± 0.062 (concentration: 0.1mM) and 1.08 ± 0.025 (concentration: 0.5mM).
In the same order, the values of UniProt Q99622 and related entries are 0.904 ± 0.16 and 0.819 ± 0.22.
In the same order, the values of DESI2 (UniProt Q9BSY9) are 1.01 ± 0.054 and 1 ± 0.034.
Taken in the same sequence, the figures for DOK1 (UniProt Q99704) were 0.978 ± 0.041 and 0.996 ± 0.078.
Consider UniProt Q9BPX7-2|Q9BPX7, for which the NP40-soluble protein abundance runs as follows: (concentration: 0.1mM) 1.05 ± 0.048; (concentration: 0.5mM) 1.07 ± 0.036.
Taken in the same sequence, the figures for UniProt Q99873-3|Q99873-4 were 1.11 ± 0.17 and 1.12 ± 0.16.
For UniProt Q99755-3|A6PW57, the NP40-soluble protein abundance reads like this: (concentration: 0.1mM) 1.022 ± 0.0041; (concentration: 0.5mM) 1.17 ± 0.016.
Taken in the same sequence, the figures for UniProt Q99640 and related entries were 0.974 ± 0.051 and 1.02 ± 0.057.
On to UniProt Q9BZQ6-2, for which the NP40-soluble protein abundance by setting is: (concentration: 0.1mM) 1.03 ± 0.033; (concentration: 0.5mM) 1.01 ± 0.021.
As to UniProt Q9BSC4 and related entries, the NP40-soluble protein abundance is, setting by setting: (concentration: 0.1mM) 0.98 ± 0.011; (concentration: 0.5mM) 1.06 ± 0.013.
In the same order, the values of UniProt Q9BXM9 and related entries are 0.993 ± 0.055 and 0.99 ± 0.058.
Taken in the same sequence, the figures for SDF4 (UniProt Q9BRK5) were 0.985 ± 0.057 and 0.953 ± 0.026.
Regarding MRPL32 (UniProt Q9BYC8), the NP40-soluble protein abundance is, setting by setting: (concentration: 0.1mM) 0.969 ± 0.22; (concentration: 0.5mM) 0.987 ± 0.21.
As for SIKE1 (UniProt Q9BRV8), the NP40-soluble protein abundance is, setting by setting: (concentration: 0.1mM) 0.939 ± 0.13; (concentration: 0.5mM) 0.862 ± 0.1.
On to RBM4B (UniProt Q9BQ04), for which the NP40-soluble protein abundance was found to be 1.03 ± 0.04 (concentration: 0.1mM) and 0.944 ± 0.014 (concentration: 0.5mM).
Taken in the same sequence, the figures for UniProt Q99766 were 1.03 ± 0.055 and 1.01 ± 0.029.
SORT1 (UniProt Q99523): the NP40-soluble protein abundance is, setting by setting: (concentration: 0.1mM) 0.955 ± 0.02; (concentration: 0.5mM) 0.929 ± 0.021.
Taken in the same sequence, the figures for GPA33 (UniProt Q99795) were 0.952 ± 0.065 and 0.979 ± 0.12.
Taken in the same sequence, the figures for UBXN6 (UniProt Q9BZV1) were 1.02 ± 0.026 and 0.957 ± 0.076.
Consider TARS2 (UniProt Q9BW92), for which the NP40-soluble protein abundance by setting is: (concentration: 0.1mM) 1.07 ± 0.074; (concentration: 0.5mM) 1.04 ± 0.048.
As for BTBD2 (UniProt Q9BX70), the NP40-soluble protein abundance is 0.877 ± 0.043 (concentration: 0.1mM) and 0.955 ± 0.16 (concentration: 0.5mM).
In the same order, the values of UniProt Q9BSR8 and related entries are 0.961 ± 0.021 and 1.05 ± 0.13.
In the same order, the values of UCK2 (UniProt Q9BZX2) are 1.03 ± 0.056 and 1.06 ± 0.064.
In the same order, the values of UniProt Q99490-2|Q99490 are 1.01 ± 0.025 and 0.981 ± 0.037.
With GPATCH1 (UniProt Q9BRR8), the NP40-soluble protein abundance was 0.982 ± 0.057 (concentration: 0.1mM) and 0.989 ± 0.12 (concentration: 0.5mM).
Taken in the same sequence, the figures for SH3GL2 (UniProt Q99962) were 1 ± 0.075 and 1 ± 0.043.
